{"source": "PubChem BioAssay AID493014", "about": "(National Center for Advancing Translational Sciences (NCATS), 2011)", "test": "qHTS Assay to Find Inhibitors of Chronic Active B-Cell Receptor Signaling", "conditions": "ABC-DLBCL IkBa-CBG/CBR reporter, luminescence ratio (green luciferase fused to IkBa over red control in TMD8 lymphoma cells), 4 h", "outline": "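Concentration-response series (up to 46 uM) were applied to TMD8 dual-reporter cells for 4 h at 37C with doxycycline. Green/red ratio, after filter-overlap correction, defined %Activity; red signal alone was normalised to basal cells and zero luminescence.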", "key": {"[1]": {"conditions": "measured here: CBR red luminescence, cell number"}, "[2]": {"conditions": "measured here: IkBa-CBG green luminescence"}}, "note": "This is one part of the list. The main result of the screen is listed elsewhere. These columns were measured beside it and carry no call. Most of these compounds were active or inconclusive in the main read-out, so they are no random draw. The note in brackets gives the kind of curve behind each potency; many fits are weak."}
{"smiles": "CCN(CC)CCOc1ccc(/C(=C(/Cl)c2ccccc2)c2ccccc2)cc1", "values": [{"measurement": "AC50", "setting": "[1]", "value": "15.8 µM [falling, single point]"}]}
{"smiles": "C=CCNC(=S)N/N=C(\\C)c1cccc(NC(C)=O)c1", "values": [{"measurement": "AC50", "setting": "[1]", "value": "35.5 µM [falling, single point]"}, {"measurement": "AC50", "setting": "[2]", "value": "22.4 µM [falling, single point]"}]}
{"smiles": "Cc1ccc(NC(=O)c2cc(NC(=O)c3ccco3)ccc2N2CCOCC2)cc1", "values": [{"measurement": "AC50", "setting": "[1]", "value": "1.3 µM [falling, full curve]"}]}
{"smiles": "Cc1cc(/C=C2/NC(=O)NC2=O)c(C)n1-c1sc2c(c1C#N)CCCC2", "values": [{"measurement": "AC50", "setting": "[1]", "value": "29.1 µM [falling, single point]"}]}
{"smiles": "O=C(Nc1ccc(NC(=O)c2cccs2)cn1)c1ccco1", "values": [{"measurement": "AC50", "setting": "[1]", "value": "14.1 µM [falling, single point]"}]}
{"smiles": "C=CCSc1nnc(NC(=O)C2=COCCO2)s1", "values": [{"measurement": "AC50", "setting": "[1]", "value": "18.4 µM [falling, single point]"}]}
{"smiles": "C/C(=N/NC(=O)CNc1ccc(Cl)cc1C)c1ccc(C)cc1", "values": [{"measurement": "AC50", "setting": "[1]", "value": "14.1 µM [falling, partial curve, poor fit]"}]}
{"smiles": "COC(=O)C1=C(C)NC(C)=C(C(=O)OC)C1C(=O)OCCN1C(=O)c2ccccc2C1=O", "values": [{"measurement": "AC50", "setting": "[1]", "value": "3.55 µM [rising, single point]"}]}
{"smiles": "CNC(=O)c1c(Cl)cnn1-c1ccc(F)cc1", "values": [{"measurement": "AC50", "setting": "[1]", "value": "35.5 µM [rising, single point]"}]}
{"smiles": "CN(C)S(=O)(=O)c1cccc(NC(=O)COc2ccccc2C(=O)NCc2ccccc2)c1", "values": [{"measurement": "AC50", "setting": "[1]", "value": "2.06 µM [falling, partial curve, poor fit]"}]}
{"smiles": "COc1ccc(C(=O)Nc2ccc(F)cc2F)cc1OC", "values": [{"measurement": "AC50", "setting": "[1]", "value": "12.6 µM [falling, partial curve]"}]}
{"smiles": "O=C(CCC1CCCCC1)Nc1nnc(C(F)(F)F)s1", "values": [{"measurement": "AC50", "setting": "[1]", "value": "0.316 µM [rising, full curve, poor fit]"}]}
{"smiles": "CCCN(C(=O)c1c(-c2ccccc2)noc1C)c1c(N)n(Cc2ccccc2)c(=O)[nH]c1=O", "values": [{"measurement": "AC50", "setting": "[1]", "value": "20.6 µM [falling, single point]"}]}
{"smiles": "C/C(=N\\NC(=S)NC1CCCCC1)c1c(F)cccc1F", "values": [{"measurement": "AC50", "setting": "[1]", "value": "17.8 µM [rising, single point]"}, {"measurement": "AC50", "setting": "[2]", "value": "7.08 µM [falling, partial curve, poor fit]"}]}
{"smiles": "COc1ccccc1N1CCN(C(=O)c2cccc(N3C(=O)NC4CC3(C)Oc3c(OC)cccc34)c2)CC1", "note": "(centres undefined)", "values": [{"measurement": "AC50", "setting": "[1]", "value": "10 µM [falling, partial curve, poor fit]"}]}
{"smiles": "CCN(CC)C(=O)c1sc2c(c1C)c(=O)n(Cc1ccccc1)c(=O)n2Cc1c(C)cc(C)cc1C", "values": [{"measurement": "AC50", "setting": "[1]", "value": "12.6 µM [falling, partial curve, poor fit]"}]}
{"smiles": "Cc1cccc(/C=C2\\Sc3ccc(C(=O)N4CCCCC4)cc3N(C)C2=O)c1", "values": [{"measurement": "AC50", "setting": "[1]", "value": "14.1 µM [falling, partial curve]"}]}
